# Test results as given in the supplement of paper PMC12889115.
# This is one part of the list. Values are raw readings; no control value is given beside them.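 Primary screen: polymyxin B was added at a level permeabilizing Salmonella outer membranes while sparing inner membranes. DMSO wells, both with and without polymyxin B, established maximum growth. Plate-to-plate variation meant each plate was ranked on its own, and the lowest-OD600 compounds were selected as hits.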
# Tested on: Salmonella enterica serovar Typhimurium SL1344
# Assay: bacterial growth OD600 after 18 h with compound and polymyxin B; higher = more bacterial growth (less inhibition)
# Conditions: 50 µM, Mueller-Hinton broth
Structure (SMILES),bacterial growth OD600 (polymyxin B 0.75 µg/mL),bacterial growth OD600 (polymyxin B 1 µg/mL)
CCC1CN(CC(=O)NCCc2cccs2)Cc2cc(OC)ccc2O1 (stereo unspecified),0.789,
Cc1noc(C)c1C(=O)N(C)CC1CCCN(CCc2ccc(F)cc2)C1 (stereo unspecified),,0.772
COc1ccc(OC)c(-c2cc(Cl)c3c(c2)CC(CNC(=O)C(C)n2nc(C)cc2C)O3)c1 (stereo unspecified),0.02,
C=CCN(CC=C)C(=O)C1CCCN(c2nc(C)c3ccc(OC)cc3n2)C1 (stereo unspecified),0.005,
COc1cccc(CN2CCOc3ccc(CN4CCC(Oc5cccnc5)CC4)cc3C2)c1OC,0.812,
O=C1O[C@@H]2CN(C3CSCCSC3)C[C@@H]2N1CCc1cccc(Cl)c1,,0.964
CCN(CC)C1CCN(C(=O)c2csc3nc(-c4ccccc4)cn23)C1 (stereo unspecified),,0.902
COc1cc(C(=O)N2CCN(C)C(=O)[C@@H]2C)ccc1OC1CCN(C2CCCC2)CC1,0.828,
COc1ccc(-c2n[nH]cc2CN(C)Cc2cccc(C(F)(F)F)c2)c(OC)c1,,0.894
Cc1cc(C)c2[nH]c(C(=O)NCC3CC(Cc4ccc(F)cc4)=NO3)c(C)c2c1 (stereo unspecified),0.842,
CC(C)CCNC(=O)c1cn(CC(C)C)cc(C(=O)N2CCN(c3ccccc3)CC2)c1=O,0.913,
COc1ccc(CCc2nnc(CCC(=O)N(C)Cc3ccnc4ccccc34)o2)cc1,,0.813
CC(C)[C@H]1CN(C)CCN1C(=O)c1cc(COc2ccc(F)cc2F)[nH]n1,,1.04
CC(C)CCC(=O)N1CCC(N2CCCC(C(=O)NC3CC3)C2)CC1 (stereo unspecified),0.865,
CCOC(=O)CN(C)C(=O)C1CCC(=O)N(CCc2ccc(OC)cc2)C1 (stereo unspecified),,0.932
CN(Cc1cnccn1)C(=O)CC(c1ccccc1)c1cccc(Cl)c1 (stereo unspecified),,0.721

# Retrieved by structure from the entries so far:
Structure (SMILES),bacterial growth OD600 (polymyxin B 0.75 µg/mL),bacterial growth OD600 (polymyxin B 1 µg/mL)
CN(Cc1cnccn1)C(=O)CC(c1ccccc1)c1cccc(Cl)c1 (stereo unspecified),,0.721
COc1ccc(OC)c(-c2cc(Cl)c3c(c2)CC(CNC(=O)C(C)n2nc(C)cc2C)O3)c1 (stereo unspecified),0.02,

# Additional structures:

Structure (SMILES),bacterial growth OD600 (polymyxin B 0.75 µg/mL),bacterial growth OD600 (polymyxin B 1 µg/mL)
Cc1oc(-c2ccc(NC(=O)Cc3ccccc3)cc2)nc1CNC(=O)c1cscn1,0.012,
Cc1ccccc1Cn1cc(C(=O)N2CCC(C(O)CCc3ccccc3)CC2)nn1 (stereo unspecified),,0.769
CCCn1cc(CN(CCc2ccccc2)CC2CCCN(C)C2)c(C)n1 (stereo unspecified),,1.18
CO[C@H]1[C@H](NC(=O)c2ccco2)c2ccccc2C12CCN(Cc1cc3ccccc3s1)CC2,0.005,
CC#CC(=O)N1CCCC(Nc2ccc(C(C)C)cc2)C1 (stereo unspecified),,0.879
C=CCCC(=O)NC1CCCN(Cc2ccc(CC(C)C)cc2)C1 (stereo unspecified),,1.04
CCCNC(=O)N1CCC2(CCCN(CC3CCCCC3)C2=O)C1 (stereo unspecified),,0.841
O=C(Nc1ccc(Oc2ccccc2)nc1)C1CCCCN1Cc1cccnc1 (stereo unspecified),0.83,
COCCNC(=O)c1ccc(OC2CCN(C3CCCCC3)CC2)c(Cl)c1,,0.836
O=C(c1coc(COc2ccc(F)cc2Cl)n1)N1CCCCO1,0.758,
CCn1ccnc1CN(C)CC1CCN(CCc2ccc(Cl)cc2)CC1,,0.752
CN(Cc1ccccc1)C(=O)CCC1CCN(S(=O)(=O)c2ccsc2)CC1,0.938,
CN(CCc1ccccc1)C1CCCN(C(=O)c2ccccc2Cl)C1 (stereo unspecified),,0.812
CC(=O)N1CCN(c2ncccc2CNC(=O)c2cc(CC(C)C)n[nH]2)CC1,0.962,
O=C(c1ccco1)N1CCCC(CCc2ccccc2)C1 (stereo unspecified),0.005,
